For three molecules, binding results are on record in article doi:10.1101/320978.

Common to all, as to experiment: two-hybrid
Assay [1] has as its target T1, EGL-44 (C. elegans) (UniProt Q19849).
T1 sequence: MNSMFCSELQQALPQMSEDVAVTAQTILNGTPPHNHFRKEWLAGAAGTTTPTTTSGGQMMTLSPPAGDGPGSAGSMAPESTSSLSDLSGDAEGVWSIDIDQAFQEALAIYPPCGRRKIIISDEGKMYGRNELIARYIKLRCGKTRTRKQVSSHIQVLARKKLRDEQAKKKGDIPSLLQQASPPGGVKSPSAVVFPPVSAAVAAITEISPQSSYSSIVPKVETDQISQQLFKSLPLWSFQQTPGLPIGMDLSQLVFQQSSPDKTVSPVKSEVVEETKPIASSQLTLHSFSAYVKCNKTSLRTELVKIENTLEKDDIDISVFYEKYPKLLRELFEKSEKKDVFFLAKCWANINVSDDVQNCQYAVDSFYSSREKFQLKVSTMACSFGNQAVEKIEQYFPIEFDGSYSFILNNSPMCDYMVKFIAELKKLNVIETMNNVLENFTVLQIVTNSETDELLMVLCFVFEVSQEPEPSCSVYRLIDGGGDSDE

The target of assay [2] is T2, EGL-46 (C. elegans) (UniProt G5EFY4).
T2 sequence: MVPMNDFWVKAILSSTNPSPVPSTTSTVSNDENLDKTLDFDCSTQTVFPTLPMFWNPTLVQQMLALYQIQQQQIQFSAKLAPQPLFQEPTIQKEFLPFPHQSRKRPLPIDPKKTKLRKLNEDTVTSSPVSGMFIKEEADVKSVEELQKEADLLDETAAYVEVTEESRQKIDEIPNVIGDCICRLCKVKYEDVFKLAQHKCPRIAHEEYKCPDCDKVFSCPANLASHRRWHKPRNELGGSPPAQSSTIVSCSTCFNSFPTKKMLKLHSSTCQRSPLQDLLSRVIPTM

In assay [3] the target is T3, MEC-3 (C. elegans) (UniProt P09088).
T3 sequence: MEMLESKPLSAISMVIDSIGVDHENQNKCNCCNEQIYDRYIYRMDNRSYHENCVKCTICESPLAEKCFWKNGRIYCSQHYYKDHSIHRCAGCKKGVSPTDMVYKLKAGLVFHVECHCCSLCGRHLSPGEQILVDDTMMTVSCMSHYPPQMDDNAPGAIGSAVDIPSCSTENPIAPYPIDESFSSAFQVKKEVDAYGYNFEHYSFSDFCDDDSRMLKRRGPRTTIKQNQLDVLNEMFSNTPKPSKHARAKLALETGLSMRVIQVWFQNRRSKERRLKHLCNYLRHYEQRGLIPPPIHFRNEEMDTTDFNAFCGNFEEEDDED

These are yes or no findings as the source states them, for the method shown. Some binding calls cover weakened binding; strength is not graded here.

B1: MEC-3 (protein, UniProt P09088 1-321)
chain: MEMLESKPLSAISMVIDSIGVDHENQNKCNCCNEQIYDRYIYRMDNRSYHENCVKCTICESPLAEKCFWKNGRIYCSQHYYKDHSIHRCAGCKKGVSPTDMVYKLKAGLVFHVECHCCSLCGRHLSPGEQILVDDTMMTVSCMSHYPPQMDDNAPGAIGSAVDIPSCSTENPIAPYPIDESFSSAFQVKKEVDAYGYNFEHYSFSDFCDDDSRMLKRRGPRTTIKQNQLDVLNEMFSNTPKPSKHARAKLALETGLSMRVIQVWFQNRRSKERRLKHLCNYLRHYEQRGLIPPPIHFRNEEMDTTDFNAFCGNFEEEDDED
On to B1, for which the binding entry in assay [1] and in assay [2] was “no binding” each time.

B2: ZAG-1 (protein, UniProt G5EBU4 1-596)
chain: MVDIAEAMPTTASSLPSDEALRKFKCPECTKAFKFKHHLKEHIRIHSGEKPFECQQCHKRFSHSGSYSSHMSSKKCVQQASPSMVTPFNPYQLMMYRNIMLQLQTPQVSFLPSTAANNMDYMSLLQANLFQSLENGTSPTPTQEPSAPASPEPKIEVVDEPEVSSEVKTEVKTEVKTEDSVPEESITPAVSMSLSPAPEQNGNESMNNGGSGSDGKSSPDWRPLRSRSFLNDSQVAVLQNHFKRNPFPSKYELSAVAEQIGVNKRVVQVWFQNTRAKERRSNRLPSMPRGSVASAAAAAATSPTVWQTPVQLMAAWASQFSNGNNSLTASQDERNNENTDEVMDHDGLKDGKETPLDLTLSTDDTEPEWSPEKLIGFLDQTGGVIQELLRQAGNGFVTNQEDEEEKPIKAEESPVSSGSSSIWPSFIGQYPSILDSASLSVLEKALDQQKSSEDDASSLCSNESKLLKFPTTPLKEEEGLFSCDQCDKVFGKQSSLARHKYEHSGQRPYKCDICEKAFKHKHHLTEHKRLHSGEKPFQCDKCLKRFSHSGSYSQHMNHRYSYCKPYREQPASPSDVLNGGSVTVSPSSSNTPPPST
In the case of B2, the binding result in assay [1], in assay [2] and in assay [3] was “no binding” throughout.

B3: EGL-46 (protein, UniProt G5EFY4 1-286)
chain: MVPMNDFWVKAILSSTNPSPVPSTTSTVSNDENLDKTLDFDCSTQTVFPTLPMFWNPTLVQQMLALYQIQQQQIQFSAKLAPQPLFQEPTIQKEFLPFPHQSRKRPLPIDPKKTKLRKLNEDTVTSSPVSGMFIKEEADVKSVEELQKEADLLDETAAYVEVTEESRQKIDEIPNVIGDCICRLCKVKYEDVFKLAQHKCPRIAHEEYKCPDCDKVFSCPANLASHRRWHKPRNELGGSPPAQSSTIVSCSTCFNSFPTKKMLKLHSSTCQRSPLQDLLSRVIPTM
B3: the binding entry in assay [1] is “binds”.
